Paper PMC8816931

Sequences of proteins named here, by UniProt entry; tags and fusion partners are left off. A change or cut given only in a name is not applied to a line headed by its entry. Residues count along the entry.
UniProt A2AFI6: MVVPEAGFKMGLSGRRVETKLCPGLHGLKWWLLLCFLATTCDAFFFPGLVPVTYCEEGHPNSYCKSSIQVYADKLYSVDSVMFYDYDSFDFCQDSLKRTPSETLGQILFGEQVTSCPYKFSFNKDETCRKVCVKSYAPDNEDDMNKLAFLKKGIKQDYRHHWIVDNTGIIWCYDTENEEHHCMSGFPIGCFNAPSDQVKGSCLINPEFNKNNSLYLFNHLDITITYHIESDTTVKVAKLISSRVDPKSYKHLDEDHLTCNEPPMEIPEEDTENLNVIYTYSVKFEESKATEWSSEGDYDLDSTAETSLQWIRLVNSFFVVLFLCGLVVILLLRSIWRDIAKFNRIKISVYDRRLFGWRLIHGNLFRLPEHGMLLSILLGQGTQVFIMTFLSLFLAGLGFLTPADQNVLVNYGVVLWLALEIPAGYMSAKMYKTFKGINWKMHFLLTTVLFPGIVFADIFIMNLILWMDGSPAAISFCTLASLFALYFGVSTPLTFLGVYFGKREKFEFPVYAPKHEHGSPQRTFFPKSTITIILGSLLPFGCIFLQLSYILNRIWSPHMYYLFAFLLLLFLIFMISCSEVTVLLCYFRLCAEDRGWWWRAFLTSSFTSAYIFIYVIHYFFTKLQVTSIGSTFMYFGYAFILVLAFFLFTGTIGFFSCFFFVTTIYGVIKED
UniProt O08586: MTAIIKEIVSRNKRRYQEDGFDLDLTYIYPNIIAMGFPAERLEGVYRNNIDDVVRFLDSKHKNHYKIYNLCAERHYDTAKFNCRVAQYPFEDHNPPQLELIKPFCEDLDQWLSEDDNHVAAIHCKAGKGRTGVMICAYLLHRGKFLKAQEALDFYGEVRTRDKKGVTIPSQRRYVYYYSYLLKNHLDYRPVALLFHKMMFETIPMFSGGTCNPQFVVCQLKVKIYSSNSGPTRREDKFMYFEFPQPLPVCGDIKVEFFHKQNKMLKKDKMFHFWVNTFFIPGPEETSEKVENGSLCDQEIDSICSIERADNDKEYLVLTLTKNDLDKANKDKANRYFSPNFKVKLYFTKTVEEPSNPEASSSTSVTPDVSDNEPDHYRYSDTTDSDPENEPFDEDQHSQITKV
UniProt Q6QI06: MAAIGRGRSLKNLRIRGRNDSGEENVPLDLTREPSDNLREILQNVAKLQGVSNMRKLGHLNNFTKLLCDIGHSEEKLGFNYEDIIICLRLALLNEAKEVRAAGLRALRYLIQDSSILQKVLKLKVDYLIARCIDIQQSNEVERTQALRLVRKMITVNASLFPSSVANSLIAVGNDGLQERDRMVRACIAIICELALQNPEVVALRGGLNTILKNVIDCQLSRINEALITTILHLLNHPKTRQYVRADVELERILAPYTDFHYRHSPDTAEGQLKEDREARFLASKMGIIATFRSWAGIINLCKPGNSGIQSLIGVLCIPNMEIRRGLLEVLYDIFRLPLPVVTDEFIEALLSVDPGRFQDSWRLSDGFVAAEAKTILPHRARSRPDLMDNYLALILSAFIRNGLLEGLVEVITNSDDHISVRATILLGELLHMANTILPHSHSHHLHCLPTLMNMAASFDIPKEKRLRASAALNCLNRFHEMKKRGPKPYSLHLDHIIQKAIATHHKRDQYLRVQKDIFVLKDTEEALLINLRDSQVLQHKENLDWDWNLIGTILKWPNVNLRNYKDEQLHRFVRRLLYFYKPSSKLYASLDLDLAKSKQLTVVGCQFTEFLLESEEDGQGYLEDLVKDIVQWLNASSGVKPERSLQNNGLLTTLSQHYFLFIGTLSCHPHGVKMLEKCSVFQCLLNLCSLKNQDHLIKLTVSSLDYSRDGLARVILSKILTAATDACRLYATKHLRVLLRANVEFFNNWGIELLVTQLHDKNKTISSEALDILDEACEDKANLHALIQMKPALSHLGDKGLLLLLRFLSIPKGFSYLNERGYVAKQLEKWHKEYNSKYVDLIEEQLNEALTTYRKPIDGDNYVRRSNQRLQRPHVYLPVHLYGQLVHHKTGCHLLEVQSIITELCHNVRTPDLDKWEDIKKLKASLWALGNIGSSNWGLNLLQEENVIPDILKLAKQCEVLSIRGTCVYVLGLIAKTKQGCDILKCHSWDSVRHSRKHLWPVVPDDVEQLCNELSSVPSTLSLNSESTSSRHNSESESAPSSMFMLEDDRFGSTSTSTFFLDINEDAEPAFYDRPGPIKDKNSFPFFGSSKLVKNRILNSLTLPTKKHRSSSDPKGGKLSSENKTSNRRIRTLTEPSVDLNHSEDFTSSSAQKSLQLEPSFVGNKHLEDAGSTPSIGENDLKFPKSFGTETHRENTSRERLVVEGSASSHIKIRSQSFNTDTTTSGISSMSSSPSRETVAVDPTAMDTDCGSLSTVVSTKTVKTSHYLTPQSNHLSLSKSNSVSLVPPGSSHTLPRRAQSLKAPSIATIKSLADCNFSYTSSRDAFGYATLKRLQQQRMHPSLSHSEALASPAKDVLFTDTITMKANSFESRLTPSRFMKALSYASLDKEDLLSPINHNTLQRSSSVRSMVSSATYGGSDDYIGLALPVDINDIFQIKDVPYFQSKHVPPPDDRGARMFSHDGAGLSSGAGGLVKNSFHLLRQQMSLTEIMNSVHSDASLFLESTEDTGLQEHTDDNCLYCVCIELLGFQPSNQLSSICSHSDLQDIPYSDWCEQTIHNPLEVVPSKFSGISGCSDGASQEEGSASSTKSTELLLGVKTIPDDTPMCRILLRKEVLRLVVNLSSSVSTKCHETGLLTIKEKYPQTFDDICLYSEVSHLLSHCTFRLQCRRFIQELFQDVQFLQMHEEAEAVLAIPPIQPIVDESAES
UniProt O88516, residues 33-592: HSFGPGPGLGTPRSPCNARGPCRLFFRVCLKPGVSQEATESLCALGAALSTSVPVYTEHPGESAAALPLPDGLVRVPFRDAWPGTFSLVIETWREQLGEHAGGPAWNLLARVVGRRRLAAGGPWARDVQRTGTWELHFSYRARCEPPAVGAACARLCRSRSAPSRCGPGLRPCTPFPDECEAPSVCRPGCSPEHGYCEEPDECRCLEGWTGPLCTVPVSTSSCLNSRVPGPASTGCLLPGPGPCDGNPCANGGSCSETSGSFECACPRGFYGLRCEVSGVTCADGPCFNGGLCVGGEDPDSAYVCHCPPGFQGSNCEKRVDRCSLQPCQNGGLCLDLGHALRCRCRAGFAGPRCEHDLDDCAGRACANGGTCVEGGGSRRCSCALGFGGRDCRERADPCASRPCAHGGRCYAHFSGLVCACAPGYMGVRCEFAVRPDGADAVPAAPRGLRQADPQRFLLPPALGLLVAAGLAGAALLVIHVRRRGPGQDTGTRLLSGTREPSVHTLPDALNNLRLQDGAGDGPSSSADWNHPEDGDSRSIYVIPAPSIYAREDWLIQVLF
UniProt O35516, residues 26-2473: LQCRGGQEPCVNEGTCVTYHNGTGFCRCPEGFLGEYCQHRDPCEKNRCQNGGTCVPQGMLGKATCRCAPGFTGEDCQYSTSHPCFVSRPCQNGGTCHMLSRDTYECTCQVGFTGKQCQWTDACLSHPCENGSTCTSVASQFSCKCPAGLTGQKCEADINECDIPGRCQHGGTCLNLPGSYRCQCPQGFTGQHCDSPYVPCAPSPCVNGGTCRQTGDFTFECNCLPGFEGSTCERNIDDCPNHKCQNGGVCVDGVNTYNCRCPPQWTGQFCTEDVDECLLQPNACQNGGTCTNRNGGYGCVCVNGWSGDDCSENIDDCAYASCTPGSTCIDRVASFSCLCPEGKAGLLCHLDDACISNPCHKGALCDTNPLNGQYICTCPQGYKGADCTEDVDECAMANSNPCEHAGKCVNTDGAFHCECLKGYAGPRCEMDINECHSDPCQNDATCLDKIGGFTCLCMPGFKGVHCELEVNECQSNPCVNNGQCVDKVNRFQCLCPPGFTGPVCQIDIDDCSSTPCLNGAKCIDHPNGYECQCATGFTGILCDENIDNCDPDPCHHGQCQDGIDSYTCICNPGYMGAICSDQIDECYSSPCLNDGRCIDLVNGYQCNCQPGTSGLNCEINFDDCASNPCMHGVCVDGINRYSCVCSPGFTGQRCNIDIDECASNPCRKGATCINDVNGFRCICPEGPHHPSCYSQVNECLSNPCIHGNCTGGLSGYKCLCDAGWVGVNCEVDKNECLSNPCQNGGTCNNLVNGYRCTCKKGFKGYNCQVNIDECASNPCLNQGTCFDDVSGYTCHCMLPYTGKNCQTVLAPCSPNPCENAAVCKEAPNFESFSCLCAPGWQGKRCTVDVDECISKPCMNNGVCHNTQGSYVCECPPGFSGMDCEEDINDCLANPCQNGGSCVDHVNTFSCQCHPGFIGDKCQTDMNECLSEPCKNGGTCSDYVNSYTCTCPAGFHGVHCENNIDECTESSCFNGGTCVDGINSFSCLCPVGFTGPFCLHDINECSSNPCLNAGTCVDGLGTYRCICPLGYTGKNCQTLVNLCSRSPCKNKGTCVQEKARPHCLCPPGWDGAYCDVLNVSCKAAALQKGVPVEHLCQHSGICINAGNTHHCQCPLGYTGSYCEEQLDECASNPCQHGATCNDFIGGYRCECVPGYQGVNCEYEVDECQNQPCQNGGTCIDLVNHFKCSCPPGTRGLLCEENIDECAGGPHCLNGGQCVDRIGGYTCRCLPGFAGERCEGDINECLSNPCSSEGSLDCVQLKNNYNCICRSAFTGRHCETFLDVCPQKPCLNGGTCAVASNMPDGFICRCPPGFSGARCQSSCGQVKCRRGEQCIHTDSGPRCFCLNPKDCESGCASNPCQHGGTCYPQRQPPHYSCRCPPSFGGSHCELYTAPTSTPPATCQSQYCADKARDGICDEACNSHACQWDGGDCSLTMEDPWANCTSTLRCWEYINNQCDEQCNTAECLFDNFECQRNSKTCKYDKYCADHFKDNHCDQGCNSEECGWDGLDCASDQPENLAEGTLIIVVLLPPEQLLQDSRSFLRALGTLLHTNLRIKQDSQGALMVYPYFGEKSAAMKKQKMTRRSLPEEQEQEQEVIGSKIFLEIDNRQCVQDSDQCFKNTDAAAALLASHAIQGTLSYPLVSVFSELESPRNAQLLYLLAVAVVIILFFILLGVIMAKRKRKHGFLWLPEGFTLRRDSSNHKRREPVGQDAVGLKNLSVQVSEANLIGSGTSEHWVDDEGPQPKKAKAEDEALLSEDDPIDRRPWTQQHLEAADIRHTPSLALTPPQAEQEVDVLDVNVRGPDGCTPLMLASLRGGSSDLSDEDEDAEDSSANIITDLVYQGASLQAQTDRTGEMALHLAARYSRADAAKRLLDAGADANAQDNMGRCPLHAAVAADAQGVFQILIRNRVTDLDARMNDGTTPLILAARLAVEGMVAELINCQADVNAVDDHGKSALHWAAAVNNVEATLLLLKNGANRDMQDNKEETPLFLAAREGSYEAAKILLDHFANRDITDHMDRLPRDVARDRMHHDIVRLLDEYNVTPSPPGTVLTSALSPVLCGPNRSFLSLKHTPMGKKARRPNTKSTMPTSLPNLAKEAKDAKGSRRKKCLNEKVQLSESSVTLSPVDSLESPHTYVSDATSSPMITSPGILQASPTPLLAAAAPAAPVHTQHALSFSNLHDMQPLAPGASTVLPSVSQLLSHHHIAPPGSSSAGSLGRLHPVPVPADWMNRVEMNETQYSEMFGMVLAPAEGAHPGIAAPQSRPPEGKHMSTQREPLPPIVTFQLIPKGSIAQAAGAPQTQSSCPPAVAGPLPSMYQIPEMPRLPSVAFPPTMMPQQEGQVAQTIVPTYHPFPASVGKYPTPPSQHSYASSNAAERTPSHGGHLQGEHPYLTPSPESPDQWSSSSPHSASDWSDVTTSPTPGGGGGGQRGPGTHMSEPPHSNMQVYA

Tests used:
Assay in all cases: co-IP; 2.5 ug rabbit antibody coupled to protein A/G beads, lysate of 400 mouse oocytes, IP buffer (20 mM Tris-HCl pH 8.0, 10 mM EDTA, 1 mM EGTA, 150 mM NaCl, 0.05% Triton X-100, 0.05% Nonidet P-40), overnight at 4 °C, three washes, SDS-PAGE and western blot; rabbit IgG as control
[1] = molecular target: Gm364 (mouse) (UniProt A2AFI6)
[2] = molecular target: PTEN (mouse (endogenous in oocytes)) (UniProt O08586)
[3] = molecular target: p-RICTOR (mouse (endogenous in oocytes)) (UniProt Q6QI06)

Substance | binding [1] | binding [2] | binding [3]
DLL3 (from UniProt O88516 33-592) (ligand) | binds | – | –
Gm364 (from UniProt A2AFI6) | – | no binding | no binding
Notch2 (from UniProt O35516 26-2473) (receptor) | binds | – | –

Results are given in words; binding and its absence hold for the method and conditions named. In cells and extracts the contact can be indirect. For some of these results: Binding calls can cover weak binding; strength is not graded here.
